Measurements from US20200270588A1, “GLUCOSYL TRANSFERASE POLYPEPTIDES AND METHODS OF USE” (Syngenta Participations AG, priority 2017, published 2020).

Test: UDP luminescence plate assay of E. coli extracts, mutants of SEQ ID No: 1, 2 mM metribuzin
Assay type: biochemical, Zea mays
Description: Optionally plate assays are stopped with brief heating to 95 C before returning to ice and addition of UDP-Glo detection reagent followed by incubation at lab temperature. […] In addition a UDP standard curve is run alongside each set of plate tests.
Assays were carried out on extracts of E. coli BL21 DE3 expressing the various C-terminally his-tagged library variants of SEQ ID NO:1 at the amino acid positions listed in Table 11 as described in Example 2 except, in this case, with 2 mM metribuzin in place of herbicide V.
Thus the ratio of the metribuzin to DMSO signal as well as the increase in signal relative to the w/t bx9 is used to help distinguish those mutations most likely to offer the highest activity to metribuzin. A follow up assay monitored by, for example, LC MS is one method to distinguish these cases more quantitatively.

B1: bx9 w/t: wild type Zea mays bx9 glucosyl transferase, C-terminally his-tagged SEQ ID NO: 1 (protein)
chain: MASSRTGAGAGGRVVVFPFPFQGHFNPVMRLARALHARGLAITVFHSGALDPADYPADYRFVPVTVEADPKLLASEDIAAIVTTLNASCDAPFRARLSALLAAEGRDSVRCVFTDVSWNAVLTASSDLGVPALGMMTASAASLRDYMAYRTLIDKGYLPVKEERKEDPVPELPPYLVKDLLRVDTSDLEEFAELLARTVTAARRASGLIFNTFPLIETDTLAEIHKALSVPVFAVAPLNKLVPTATASLHGVVQADRGCLQWLDTQQPGSVLYVSFGSMAAMDPHEFVELAWGLADSKRPFVWVVRPNLIRGFESGALPDGVEDEVRGRGIVVAWAPQEEVLAHPAVGGFLTHNGWNSTVEAISEGVPMVCCPRHGDQFGNMRYVCDVWKVGTELVGEQLERGQVKAAIDRLFGTKEGEEIKERMKEFKIAAAKGIGIGVDVDETASPRTDLTDLVDLIKSF
modifications: C-terminal His tag; Zea mays
RATIO: metribuzin signal to DMSO signal (2 mM metribuzin): 0.97
RATIO of the metribuzin signal to the DMSO signal (2 mM metribuzin vs DMSO control, same mutant): 1.01
metribuzin signal relative to DMSO control background signal (after subtracting the H24A null background): 2-2.5 ×
